Record: PubChem BioAssay AID743454 (Peter MacCallum Cancer Centre, 2014)

Screen: 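Search for knock-downs that restore vorinostat killing in resistant colon cancer cells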 (primary screen)
Cell system: human HCT116-VR colon cancer cells, selected for vorinostat resistance
Reagents: siRNA pool against human genes, 40 nM siRNA pool
Duration: vorinostat for 24 h, read-out about 72 h after transfection
Conditions: vorinostat at 2.5 µM final
Detection: 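Two measures, CellTiter-Fluor viability and luminescent caspase 3/7 activity, each as fold change against same-plate mock wells, mean of duplicates, then screen-wide robust z-score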
Direction: viability robust z-score: higher = more viable cells than screen typical; caspase robust z-score: higher = more caspase 3/7 activity than screen typical
Call rule: 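a knock-down is a hit when classed RV1 or RV2 for lowered viability, or CA1 or CA2 for caspase activation; those lethal without drug were dropped; hits were retested singly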
In all, the deposit lists about 18,000 reagents; below is a part drawn at random. 450 of all reagents (2.5%) were called active. 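Single biological run; no consistent viability z cut-off exists, so the class columns, not z-scores, define the calls.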

JADE3 (jade family PHD finger 3) — viability hit class = no change; caspase hit class = no change; viability robust z-score = -0.68; caspase robust z-score = 0.51; call = inactive
ALKAL1 (ALK and LTK ligand 1) — viability hit class = no change; caspase hit class = no change; viability robust z-score = 1.34; caspase robust z-score = -0.69; call = inactive
KDM4D (lysine demethylase 4D) — viability hit class = no change; caspase hit class = no change; viability robust z-score = -0.47; caspase robust z-score = 0.98; call = inactive
HHATL (hedgehog acyltransferase like) — viability hit class = no change; caspase hit class = no change; viability robust z-score = 1.18; caspase robust z-score = -0.46; call = inactive
SUCNR1 (succinate receptor 1) — viability hit class = no change; caspase hit class = no change; viability robust z-score = 0.16; caspase robust z-score = -0.52; call = inactive
CCDC150 (coiled-coil domain containing 150) — viability hit class = no change; caspase hit class = no change; viability robust z-score = 0.55; caspase robust z-score = -0.94; call = inactive
IGSF3 (immunoglobulin superfamily member 3) — viability hit class = no change; caspase hit class = no change; viability robust z-score = 1.27; caspase robust z-score = 0.12; call = inactive
DHRS12 (dehydrogenase/reductase 12) — viability hit class = no change; caspase hit class = no change; viability robust z-score = 0.64; caspase robust z-score = -1.03; call = inactive
RAX2 (retina and anterior neural fold homeobox 2) — viability hit class = no change; caspase hit class = no change; viability robust z-score = -1.48; caspase robust z-score = 4.21; call = inactive
SH3BGR (SH3 domain binding glutamate rich protein) — viability hit class = no change; caspase hit class = no change; viability robust z-score = 0.88; caspase robust z-score = -1.14; call = inactive
NKAP (NFKB activating protein) — viability hit class = no change; caspase hit class = no change; viability robust z-score = -1.06; caspase robust z-score = -0.36; call = inactive
CDC42EP3 (CDC42 effector protein 3) — viability hit class = no change; caspase hit class = no change; viability robust z-score = 0.53; caspase robust z-score = 2.3; call = inactive
SH3BP5L (SH3 binding domain protein 5 like) — viability hit class = no change; caspase hit class = no change; viability robust z-score = -0.15; caspase robust z-score = 1.18; call = inactive
PRSS55 (serine protease 55) — viability hit class = no change; caspase hit class = no change; viability robust z-score = 0.4; caspase robust z-score = 1.84; call = inactive
CEP15 (centrosomal protein 15) — viability hit class = no change; caspase hit class = no change; viability robust z-score = -0.97; caspase robust z-score = 0.5; call = inactive
AP1AR — viability hit class = no change; caspase hit class = no change; viability robust z-score = 1; caspase robust z-score = 0.19; call = inactive
ARL17B (ARF like GTPase 17B) — viability hit class = no change; caspase hit class = no change; viability robust z-score = -0.76; caspase robust z-score = 1.03; call = inactive
CPNE5 (copine 5) — viability hit class = no change; caspase hit class = no change; viability robust z-score = 0.84; caspase robust z-score = 0.54; call = inactive
XAGE1B (X antigen family member 1B) — viability hit class = no change; caspase hit class = no change; viability robust z-score = 0.28; caspase robust z-score = -0.04; call = inactive
SHARPIN (SHANK associated RH domain interactor) — viability hit class = no change; caspase hit class = no change; viability robust z-score = -0.5; caspase robust z-score = 3.47; call = inactive
C6orf118 (chromosome 6 open reading frame 118) — viability hit class = no change; caspase hit class = no change; viability robust z-score = -2.33; caspase robust z-score = -0.48; call = inactive
POT1 (protection of telomeres 1) — viability hit class = no change; caspase hit class = no change; viability robust z-score = -2.69; caspase robust z-score = 1.64; call = inactive
HMGCR (3-hydroxy-3-methylglutaryl-CoA reductase) — viability hit class = no change; caspase hit class = no change; viability robust z-score = 1.28; caspase robust z-score = 0.26; call = inactive
CCDC78 (coiled-coil domain containing 78) — viability hit class = no change; caspase hit class = no change; viability robust z-score = -1.06; caspase robust z-score = 4.62; call = inactive
EMC9 (ER membrane protein complex subunit 9) — viability hit class = no change; caspase hit class = no change; viability robust z-score = 1.26; caspase robust z-score = 1.21; call = inactive
GK5 (glycerol kinase 5) — viability hit class = no change; caspase hit class = no change; viability robust z-score = -0.36; caspase robust z-score = 0.2; call = inactive
BAD (BCL2 associated agonist of cell death) — viability hit class = no change; caspase hit class = no change; viability robust z-score = 0.16; caspase robust z-score = 0.64; call = inactive
